# Data as given in PubChem BioAssay AID720505 (Drosophila RNAi Screening Center, 2013).
# Purpose: 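Knock-downs that reduce calcium influx once internal stores are emptied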 (primary screen)
# System: Drosophila S2R+ cells
# Reagents: long dsRNA against Drosophila genes
# Challenge: thapsigargin (2 µM) in calcium-free buffer to empty internal stores, then 2 mM calcium added back
# Read-out: 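Stores emptied by 2 µM thapsigargin without calcium, then 2 mM calcium re-added; fluo-4 fluorescence followed by FLIPR in 384-well plates, per-well averaged endpoint, raw; two screen passes, some wells retested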
# Reading the numbers: calcium signal and retest calcium signal: higher = more calcium entry after store depletion
# Call rule: 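About 1500 genes called as lowering calcium entry, by varying amounts, judged against per-plate control wells with STIM1 as positive and Rho1 as negative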
# Meaning of the calls: active = called as lowering calcium entry; inactive = not called
# The screen tested about 20,000 reagents; below is an unselected part of those that have a named target and a result. Over the whole deposit, about 2,100 (10%) got an active call. 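Raw plate signals without normalisation; calls rest on control-based scores that were not deposited; replicate 2 separates called from uncalled poorly.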 Not stated in the record: the amount of reagent, the time to read-out.
target,PubChem SID,"calcium signal, replicate 1","calcium signal, replicate 2","retest calcium signal, replicate 1","retest calcium signal, replicate 2",Outcome
UbcE2H (Ubiquitin conjugating enzyme E2H),SID104198013,82.6,74.1,,,inactive
Dpp10 (Dipeptidyl peptidase 10),SID104180734,86.2,164,,,inactive
Dpp10 (Dipeptidyl peptidase 10),SID104181931,137,110,,,inactive
Or22a (Odorant receptor 22a),SID104180556,168,173,,,inactive
eIF2Bgamma (eukaryotic translation initiation factor 2B subunit gamma),SID104186892,106,123,,,inactive
hng2 (hinge2),SID104196204,136,147,,,inactive
drosha,SID104187399,166,111,,,inactive
Crz (Corazonin),SID104196407,96.1,106,,,inactive
"mAChR-A (muscarinic Acetylcholine Receptor, A-type)",SID104184494,144,186,,,inactive
CG13786,SID104182081,127,81,,,inactive
CG11317,SID104194091,117,150,,,inactive
beag,SID104195088,139,105,,,inactive
CG11666,SID104201859,55.1,191,,,active
CG5773,SID104186747,119,138,,,inactive
CtsK1 (Cathepsin K1),SID104188534,97.4,101,,,inactive
CycB3 (Cyclin B3),SID104196410,134,134,,,inactive
Keap1,SID104195320,175,211,,,inactive
CG15708,SID104186371,121,129,,,inactive
CstF64 (Cleavage stimulation factor 64 kD subunit),SID104196408,195,149,,,inactive
CG17919,SID104192363,127,135,,,inactive

9 successive entries from above, for reference:
target,PubChem SID,"calcium signal, replicate 1","calcium signal, replicate 2","retest calcium signal, replicate 1","retest calcium signal, replicate 2",Outcome
CG11317,SID104194091,117,150,,,inactive
beag,SID104195088,139,105,,,inactive
CG11666,SID104201859,55.1,191,,,active
CG5773,SID104186747,119,138,,,inactive
CtsK1 (Cathepsin K1),SID104188534,97.4,101,,,inactive
CycB3 (Cyclin B3),SID104196410,134,134,,,inactive
Keap1,SID104195320,175,211,,,inactive
CG15708,SID104186371,121,129,,,inactive
CstF64 (Cleavage stimulation factor 64 kD subunit),SID104196408,195,149,,,inactive

More results follow.
target,PubChem SID,"calcium signal, replicate 1","calcium signal, replicate 2","retest calcium signal, replicate 1","retest calcium signal, replicate 2",Outcome
CG30440,SID104184567,78.7,57.8,,,inactive
CG30440,SID104184637,101,171,,,inactive
CG30440,SID104184647,138,152,,,inactive
ARY (retired record),SID104200659,79.8,14966,,,inactive
Dhit (Double hit),SID104187203,183,90.7,,,inactive
jet (jetlag),SID104182908,76.2,145,,,inactive
NimC3 (Nimrod C3),SID104183348,98.5,119,,,inactive
NimC3 (Nimrod C3),SID104201971,98.2,98.2,,,inactive
sba (six-banded),SID104196842,131,142,6390,161,inactive
grim,SID104191144,89.7,198,,,inactive
grim,SID104202526,113,113,,,inactive
Usp16-45 (Ubiquitin specific protease 16/45),SID104198144,162,74,,,inactive
milt (milton),SID104180757,75.6,127,,,inactive
milt (milton),SID104180758,86.9,116,,,inactive
milt (milton),SID104182073,145,176,,,inactive
RhoU,SID104197595,105,104,,,inactive
RhoU,SID104197596,108,87.5,6517,167,inactive
RhoU,SID104201706,100,212,,,inactive
RhoU,SID104201874,89.3,90.7,,,inactive
Sld5,SID104194684,188,124,,,inactive
CG11382,SID104198416,98,116,,,active
firl (firelighter),SID104182220,72.9,98.7,,,active
her (hermaphrodite),SID104183335,115,108,,,inactive
CG34417,SID104198124,150,111,,,inactive
CG34417,SID104198125,114,108,,,inactive
Roe1,SID104187326,164,161,,,inactive
CG13295,SID104189761,50.9,52.6,,,active
Ip6k (Inositol hexakisphosphate kinase),SID104183846,93.6,95.8,,,inactive
Pex11ab (Peroxin 11a/b),SID104186937,134,143,,,inactive
Ir48a (Ionotropic receptor 48a),SID104185093,87.8,95.8,,,inactive
fru (fruitless),SID104196743,197,153,,,inactive
fru (fruitless),SID104196744,198,111,10996,137,inactive
fru (fruitless),SID104196745,184,125,7194,144,inactive
fru (fruitless),SID104201304,137,100,,,inactive
CG8858,SID104187082,85.9,141,,,inactive
CG10254,SID104193945,187,243,,,inactive
